Test results as given in US8211465B2, “Immediate release and sustained release ibuprofen dosing regimen” (McNeil-PPC, Inc., priority 2007, dated 2012).

Experiment: Therapeutic duration of action of an immediate release dose (from product labeling)

COc1ccc2cc([C@H](C)C(=O)O)ccc2c1 [Naproxen, naproxen]
ATDAIRD (average therapeutic duration of action of an effective immediate release dose): 10 h

CC(C(=O)O)c1cccc(C(=O)c2ccccc2)c1 (centres unmarked) [ketoprofen]
ATDAIRD (average therapeutic duration of action of an effective immediate release dose): 5 h
